Reference: paper doi:10.1101/2020.07.13.200089
Where two headings read alike, the source gives them in different places. No constants are given. Whether binding was seen depends on the method and setting. In cells and extracts the contact can be indirect. Some binding calls cover weakened binding; strength is not graded here. For part of these data: Tags and fused reporters may be left off the sequences shown.

By UniProt entry, the sequences of proteins in these tests, tags left out. Residues count along the entry.
UniProt P60953: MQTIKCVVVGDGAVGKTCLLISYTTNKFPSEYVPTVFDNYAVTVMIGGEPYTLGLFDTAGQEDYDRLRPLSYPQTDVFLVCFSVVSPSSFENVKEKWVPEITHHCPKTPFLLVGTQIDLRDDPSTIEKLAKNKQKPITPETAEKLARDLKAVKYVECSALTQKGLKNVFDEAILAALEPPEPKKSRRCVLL
UniProt Q96KP1, residues 5-97: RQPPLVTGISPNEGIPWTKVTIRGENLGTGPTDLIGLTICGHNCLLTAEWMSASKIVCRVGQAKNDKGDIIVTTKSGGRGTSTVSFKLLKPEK
UniProt Q13153, residues 69-109: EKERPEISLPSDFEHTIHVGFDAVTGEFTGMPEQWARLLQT

Tests used:
Test in all cases: split reporter
[1] = target: T1, ddRFPA-fused RalB (RA-RalB) (UniProt P11234)
T1 sequence: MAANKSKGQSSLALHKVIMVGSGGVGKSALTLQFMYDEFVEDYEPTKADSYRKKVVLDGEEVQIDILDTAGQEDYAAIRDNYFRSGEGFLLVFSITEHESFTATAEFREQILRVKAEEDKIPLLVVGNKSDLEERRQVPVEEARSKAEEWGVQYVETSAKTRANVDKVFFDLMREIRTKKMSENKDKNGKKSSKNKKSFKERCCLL

[2] = target: T1, ddRFPA-fused RalB (RA-RalB); remark: listed apart in the source
[3] = target: ddRFPA-fused Cdc42 (RA-Cdc42) (UniProt P60953)

**Q.** Which binding [1] does the source give for “ddRFPB-fused RBD of Sec5 (B3-RBD_(Sec5)) (from UniProt Q96KP1 5-97) (domain or fragment)” here?
**A.** binds

**Q.** What about the binding [2] of the same substance?
**A.** binds

**Q.** Which binding [3] does the source give for “ddRFPB-fused RBD of PAK1 (B3-RBD_(PAK1)) (from UniProt Q13153 69-109) (domain or fragment)” here?
**A.** binds
